# Screening data, single-dose tests

The chains behind the UniProt entries cited, without tags or fusion partners.
UniProt I6X8D2, whole entry: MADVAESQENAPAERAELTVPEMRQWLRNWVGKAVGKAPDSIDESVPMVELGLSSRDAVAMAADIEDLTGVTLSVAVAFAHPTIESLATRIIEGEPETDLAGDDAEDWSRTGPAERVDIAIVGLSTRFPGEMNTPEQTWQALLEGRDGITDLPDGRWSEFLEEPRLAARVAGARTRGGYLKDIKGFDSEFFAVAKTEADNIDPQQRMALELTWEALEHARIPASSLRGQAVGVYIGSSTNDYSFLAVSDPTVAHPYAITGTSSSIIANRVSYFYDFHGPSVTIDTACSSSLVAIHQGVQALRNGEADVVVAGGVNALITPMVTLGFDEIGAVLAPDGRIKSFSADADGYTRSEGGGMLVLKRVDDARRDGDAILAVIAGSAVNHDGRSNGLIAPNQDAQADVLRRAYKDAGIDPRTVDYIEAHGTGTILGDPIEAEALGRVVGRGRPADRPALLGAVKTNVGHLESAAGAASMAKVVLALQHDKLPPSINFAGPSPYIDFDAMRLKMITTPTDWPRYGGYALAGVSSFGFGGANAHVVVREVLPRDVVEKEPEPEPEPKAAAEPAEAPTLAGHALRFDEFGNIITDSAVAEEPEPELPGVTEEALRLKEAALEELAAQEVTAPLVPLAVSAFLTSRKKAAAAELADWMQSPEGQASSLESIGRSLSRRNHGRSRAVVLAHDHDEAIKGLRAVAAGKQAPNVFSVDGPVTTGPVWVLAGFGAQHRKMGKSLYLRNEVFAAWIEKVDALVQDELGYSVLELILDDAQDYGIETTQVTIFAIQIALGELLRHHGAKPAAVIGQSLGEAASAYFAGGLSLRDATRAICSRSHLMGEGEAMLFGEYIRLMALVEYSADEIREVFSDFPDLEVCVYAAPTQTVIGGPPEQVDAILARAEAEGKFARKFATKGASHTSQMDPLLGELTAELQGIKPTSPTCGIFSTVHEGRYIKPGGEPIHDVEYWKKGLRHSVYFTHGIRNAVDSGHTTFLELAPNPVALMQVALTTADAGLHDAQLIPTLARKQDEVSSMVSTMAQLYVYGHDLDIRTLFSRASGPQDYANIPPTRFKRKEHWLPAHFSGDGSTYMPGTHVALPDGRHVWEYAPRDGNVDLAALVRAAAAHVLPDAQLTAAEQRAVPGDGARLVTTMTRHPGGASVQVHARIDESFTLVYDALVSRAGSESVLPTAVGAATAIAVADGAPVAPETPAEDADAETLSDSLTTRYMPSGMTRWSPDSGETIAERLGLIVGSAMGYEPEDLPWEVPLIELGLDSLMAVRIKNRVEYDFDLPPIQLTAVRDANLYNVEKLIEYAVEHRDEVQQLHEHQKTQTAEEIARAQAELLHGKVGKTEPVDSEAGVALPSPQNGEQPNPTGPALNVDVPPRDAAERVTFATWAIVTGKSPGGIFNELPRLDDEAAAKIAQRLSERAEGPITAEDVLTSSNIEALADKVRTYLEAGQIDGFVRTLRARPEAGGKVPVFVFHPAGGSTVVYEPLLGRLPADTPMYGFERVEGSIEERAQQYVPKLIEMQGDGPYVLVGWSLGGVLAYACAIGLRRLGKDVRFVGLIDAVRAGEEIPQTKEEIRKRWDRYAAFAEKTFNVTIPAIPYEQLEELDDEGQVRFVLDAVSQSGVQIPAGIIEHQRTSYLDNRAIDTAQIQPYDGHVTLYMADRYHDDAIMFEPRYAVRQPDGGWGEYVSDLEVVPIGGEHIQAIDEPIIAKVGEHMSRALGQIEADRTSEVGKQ
UniProt P9WPC5, whole entry: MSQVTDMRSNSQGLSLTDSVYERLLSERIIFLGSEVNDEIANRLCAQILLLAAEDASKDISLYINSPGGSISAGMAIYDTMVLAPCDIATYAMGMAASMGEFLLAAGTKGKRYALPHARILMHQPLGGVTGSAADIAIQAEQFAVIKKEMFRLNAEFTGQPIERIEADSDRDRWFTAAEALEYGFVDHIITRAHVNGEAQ
UniProt P9WPC3, whole entry partner: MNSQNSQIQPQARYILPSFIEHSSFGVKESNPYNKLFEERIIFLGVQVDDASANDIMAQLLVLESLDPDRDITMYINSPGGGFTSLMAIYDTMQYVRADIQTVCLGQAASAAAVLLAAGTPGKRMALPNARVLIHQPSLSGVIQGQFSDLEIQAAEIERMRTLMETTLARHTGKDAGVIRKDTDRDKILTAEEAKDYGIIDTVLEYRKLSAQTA

Measurements from “University of Dundee, Small-Polar-MMV Screening Library” (2021), ChEMBL document CHEMBL3988442.

A: 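Cell assay of Leishmania donovani living inside macrophages; the read-out is not stated. Tested at 30 µM. Direction is inferred from retests: higher values go with stronger inhibition. Size under these conditions: about 69,000 compounds, about 1,000 of them at 50% or above in at least one test.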
B: 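Polyketide synthase Pks13, Mycobacterium tuberculosis (UniProt I6X8D2). Enzyme assay of the thioesterase domain of polyketide synthase 13; the read-out is not stated. Concentration: 30 µM. Higher reads as stronger inhibition (inferred from which compounds were picked for retests). Of about 67,000 compounds tested this way, about 300 (0.46%) reached 50% or more in at least one test.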
C: 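ClpP1P2, Mycobacterium tuberculosis (UniProt P9WPC5 and UniProt P9WPC3). Protease assay of ClpP1P2, read by the AMC dye that it sets free. Compounds at 50 µM. Higher reads as stronger inhibition, judged from the few compounds that gave an IC50. Most other retested compounds had strongly negative values. Size under these conditions: about 69,000 compounds, about 10 of them at 50% or above in at least one test.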
D: 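Whole-parasite assay of Trypanosoma brucei over 72 hours; the read-out is not stated. Concentration: 30 µM. Higher reads as stronger inhibition (inferred: compounds with an IC50 in retests scored well above the rest). Values scatter widely below zero; nearly all retest evidence comes from the higher of the two concentrations used. Of about 64,000 compounds tested this way, about 940 (1.5%) reached 50% or more in at least one test.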

Results are given as percent effect.
The controls that fix the scale are not given in the record; negative values are as filed.
The compounds are a random part of those screened.
Two or more numbers in one place are separate tests of the same structure; such repeats can differ widely.

For CN1C(=O)C(C)(C)COc2ccc(NS(=O)(=O)Cc3ccccc3)cc21 the result was A: -10.35%; B: -5.533%; C: 17.26%; D: -13.54%. O=C(NCC1(CO)CC1)c1ccccc1Cl gave A: 11.82%; B: -14.11%; C: 2.279%; D: -15.75%. Result for COc1c(CNCc2cccc(CN(C)C)c2)c(C)nn1C was B: -11.75%; C: 9.908%. For CCOc1ccccc1N(C)C(=O)c1cscn1 the result was A: 19.15%; B: -22.44%; C: -9.058%; D: -26.92%. For Cc1cc(NCc2ccc(N3CCNC(=O)C3)cc2)nc(C)n1 the result was A: -2.361%; B: -1.018%; C: 0.6544%; D: -10.52%. For CC1CN(C(=O)Nc2cc(C(F)(F)F)c[nH]c2=O)CC(C)(C)O1 (stereo not shown) the result was A: 32.54%; B: -5.976%; C: -8.821%; D: -34.75%.

Result for NC(=O)C1CCN(C(=O)CCSCc2ccccc2)CC1 was A: -20.25%; B: 3.897%; C: -3.258%; D: -21.1%. With Cc1cccc(NCC(=O)NC2(C#N)CCCC2)c1C(=O)N1CCCC1 the screen gave A: 9.803%; B: -34.18%; C: 1.712%; D: -37.76%. COc1ccc(NCC2(O)CCNCC2)cc1OC gave A: 8.948%; B: 5.247%; C: -8.404%. c1ccc(-c2nnc(CN3CCCC3Cn3cncn3)o2)cc1 (stereo not shown) read A: 11.12%; B: -13.83%; C: -12.96%. Result for Cn1ccnc1CN1CCC2(CC1)CN(c1ccccc1)C(=O)CO2.O=C(O)C(F)(F)F was A: -2.117% and -22.22%; D: -32.14%. For CCC(CO)N(Cc1ccccn1)C(=O)c1ccc(=O)[nH]c1 (stereo not shown) the result was A: 6.41%; B: -23.89%; C: -2.51%; D: -5.303%.

CC(C)C1COC2(CCN(Cc3ccco3)CC2)C1 (stereo not shown) gave B: -15.93%; C: -15.11%. With Cc1noc(C)c1C(=O)N1CCCC1c1c(C)nn(C)c1C (stereo not shown) the screen gave A: -2.746%; B: 1.379%; C: -19.27%. Result for CO[C@@H]1CCN(Cc2cccs2)[C@@H]2CN(Cc3ccncc3)C[C@@H]21 was B: -23.35%; C: 13.3%. Result for CCc1ncc2c(n1)CN(Cc1nc3c(F)cccc3[nH]1)CC2 was A: 23.01%; B: -29.58%; C: -2.209%; D: -24.28%. Cc1nc(C)n(CC2CN(CCc3ccncc3)CCO2)n1 (stereo not shown) gave A: 5.656%; B: -17.29%; C: -7.339%; D: -69.16%. Cc1ncoc1C(=O)N1C[C@H]2CCC[C@@]2(COCC2CCOCC2)C1 gave B: -25.64%; C: 2.357%.

For N#CC1(NC(=O)c2cc(Cl)c3c(c2)OCCCO3)CCC1 the result was A: 4.347%; B: 1.372%; C: 6.869%; D: -45.22%. With O=S(=O)(C1CC1)N1C[C@@H]2COC[C@]2(COc2ccccn2)C1 the screen gave B: -5.247%; C: -10.19%. For N#Cc1c(F)cccc1NCCCOCC1CCOCC1 the result was A: 24.4%; B: -10.85%; C: -2.121%; D: 7.872%. For [H][C@]12CC[C@@]3(N=C(C)N(CC(C)C)C3=O)[C@@]1([H])CN(S(C)(=O)=O)C2 the result was A: -1.167%; D: -24.19%. CCC1CCCCN1C(=O)c1ccnc(N(C)C)c1 (stereo not shown) gave A: 1.466%; B: -24.01%; C: -39.68%.